Measurements published in PubChem BioAssay AID2685 (National Center for Advancing Translational Sciences (NCATS), 2010).
Some of the results follow. Shown are side measurements of this screen, not its main read-out; they come without a call. Compounds called inactive in the main read-out are mostly missing here. Words in brackets tell the shape of the fitted curve; partial curves, single points and poor fits give uncertain potencies.

Experiment: qHTS Assay for Lipid Storage Modulators in Drosophila S3 Cells;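 as to cell number change: cells counted by Cell Tracker Red CMTPX staining in the red channel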
Settings: BODIPY lipid droplet fluorescence, 18-24 h; for cell number change: measured here: cell count max response, cells fed with added oleic acid
Procedure, shortened: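 Drosophila S3 cells loaded with oleic acid (400 uM, as added) and compounds at several concentrations; lipid droplets imaged by 488-nm laser-scanning cytometry, 500–530 nm intensity and object ratio to cell channel. Percent activity normalized to 20 uM Triacsin C.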

[1] = measured here: cell number channel AC50, cells fed with added oleic acid
[2] = measured here: lipid fluorescence (Fed channel) AC50, cells fed with added oleic acid

Structure (SMILES) | cell number change | AC50 [1] | AC50 [2]
FC(F)(F)c1nc2ccccc2nc1N/N=C\c1ccccc1 | -93.6% | 18.4 µM [falling, partial curve] | 13 µM [falling, partial curve]
COc1ccc(N2C(=O)C(C)(C)C2c2c(O)ccc3ccccc23)cc1 (centres undefined) | -33% | 0.0651 µM [falling, full curve, poor fit] | 2.31 µM [falling, full curve]
O=P(O)(CN1CCCCCC1)CN1CCCCCC1 | -168% | 25.9 µM [falling, partial curve] | 6.51 µM [falling, single point]
CCOc1ccc(Br)cc1S(=O)(=O)Nc1ccc(C(=O)Nc2ccc(C)cc2)cc1 | 2.77% |  | 3.66 µM [rising, single point]
CCN(C(=O)CSc1nc2ccccc2c(=O)n1-c1cccc(C)c1)C1CCS(=O)(=O)C1 (centres undefined) | 8.45% |  | 3.26 µM [falling, single point]
CCOC(=O)C1(Cc2cccc(OC)c2)CCN(CC2CC=CCC2)CC1 (centres undefined) | -4.62% |  | 0.461 µM [falling, single point]
Cc1ccc2cc(CN(Cc3ccco3)C(=O)C3CCCCC3)c(=O)[nH]c2c1C | 6.29% |  | 0.82 µM [rising, full curve, poor fit]
CNC(=O)c1cc(Oc2ccc(NC(=O)Nc3ccc(Cl)c(C(F)(F)F)c3)cc2)ccn1 | -24.1% | 1.64 µM [falling, partial curve] | 
CCN(C(=O)c1c(C)noc1C)c1c(N)n(Cc2ccccc2)c(=O)[nH]c1=O | -1.12% |  | 0.00517 µM [falling, full curve, poor fit]
COCCn1c(-c2cccc([N+](=O)[O-])c2)nc2c1c(=O)[nH]c(=O)n2Cc1ccccc1 | -50% | 29.1 µM [falling, single point] | 8.2 µM [rising, partial curve, poor fit]
CCOC(=O)CCNC(=O)Nc1ccc2nc(C)n(Cc3cccc(Cl)c3)c(=O)c2c1 | -0.529% |  | 0.461 µM [rising, full curve]
CCCCC(CC)CNC(=O)CCS(=O)(=O)c1cccc2nonc12 (centres undefined) | 3.92% |  | 29.1 µM [rising, single point]
CCN(CC)C(=O)c1sc(NC(=O)C(Sc2ccccc2)c2ccccc2)c(C(=O)OC(C)C)c1C (centres undefined) | 52% |  | 6.51 µM [rising, single point]
CCN(CC)c1ccc(/C=N/n2c(=S)[nH]nc(C)c2=O)cc1 | 14.8% |  | 29.1 µM [rising, single point]
COCCSc1nnc(NC(=O)C2CC(=O)N(CCc3ccc(F)cc3)C2)s1 (centres undefined) | 24.8% |  | 29.1 µM [rising, single point]
O=C1CCCN1CCCNS(=O)(=O)c1ccc(F)cc1F | -16.2% |  | 32.6 µM [falling, single point]
COc1cc(-c2noc(-c3ccccc3C(=O)NCc3ccco3)n2)cc(OC)c1OC | 10% | 2.06 µM [rising, partial curve] | 2.06 µM [rising, full curve]
CCSc1nnc(NC(=O)c2cc3c(s2)CCCC3)s1 | -34.9% | 4.11 µM [falling, full curve, poor fit] | 20.6 µM [falling, single point]
CC(C)(C)c1ccc(C(=O)NCCC(=O)NCc2cccs2)cc1 |  |  | 0.291 µM [rising, partial curve, poor fit]

An excerpt from above in order of count of non-hydrogen atoms, low to high.
Structure (SMILES) | cell number change | AC50 [1] | AC50 [2]
CCN(CC)c1ccc(/C=N/n2c(=S)[nH]nc(C)c2=O)cc1 | 14.8% |  | 29.1 µM [rising, single point]
CCOC(=O)CCNC(=O)Nc1ccc2nc(C)n(Cc3cccc(Cl)c3)c(=O)c2c1 | -0.529% |  | 0.461 µM [rising, full curve]
COc1cc(-c2noc(-c3ccccc3C(=O)NCc3ccco3)n2)cc(OC)c1OC | 10% | 2.06 µM [rising, partial curve] | 2.06 µM [rising, full curve]
CCN(CC)C(=O)c1sc(NC(=O)C(Sc2ccccc2)c2ccccc2)c(C(=O)OC(C)C)c1C (centres undefined) | 52% |  | 6.51 µM [rising, single point]

(next part)

Structure (SMILES) | cell number change | AC50 [1] | AC50 [2]
O=C(c1cccc(S(=O)(=O)N2CCN(c3ccccc3)CC2)c1)N1CCN(c2ccccc2O)CC1 | 6.61% |  | 
COc1cccc2c1C(=O)c1c(O)c3c(c(O)c1C2=O)C[C@@](O)(C(C)=O)C[C@@H]3O[C@H]1C[C@H](N)[C@H](O)[C@H](C)O1 | -103% | 2.31 µM [falling, full curve] | 1.46 µM [falling, full curve]
CCN(CC)CCN(C(=O)c1ccc2c(c1)CCCC2)c1nc2ccc(C)cc2s1 | -1.51% |  | 
Cn1c2ccccc2c2c(C(=O)NCc3ccco3)cn(C3CCCCC3)c(=O)c21 | 51.4% | 29.1 µM [rising, single point] | 7.31 µM [rising, partial curve, poor fit]
O=C(O)CCCCCNc1nc2ncn(Cc3ccccc3)c2c(=O)[nH]1 |  |  | 25.9 µM [falling, partial curve]
Cc1ccc(C(=O)CC(C(=O)O)n2cncn2)cc1 (centres undefined) | 29.8% |  | 5.8 µM [rising, full curve]
Cc1c(N=c2scc(-c3ccccc3)n2CCO)c(=O)n(-c2ccccc2)n1C | -10.3% |  | 
COc1ccccc1NC(=O)Nc1cc(C(C)C)ccc1C | -11.5% |  | 4.11 µM [falling, full curve]
CC1(C)CC(=O)c2cnc(N3CCN(c4ccccc4)CC3)nc2C1 | 14% |  | 3.66 µM [rising, partial curve]
CCCCn1c(SCC(=O)Nc2cc(C)[nH]n2)nc2ccsc2c1=O | -17.4% |  | 0.116 µM [falling, partial curve, poor fit]
CC(=O)NCCc1ccc(S(=O)(=O)N(C)C2CCS(=O)(=O)C2)cc1 (centres undefined) | -3.86% |  | 3.66 µM [falling, single point]
NC(=O)CC(NC(=O)Cc1cccc2ccccc12)c1ccc(N2CCC(Cc3ccccc3)CC2)c([N+](=O)[O-])c1 (centres undefined) | 10.7% |  | 
C=CCNC(=O)CSc1nc2cc(C(=O)OCC)ccc2n1CC | -3.64% |  | 0.259 µM [rising, full curve, poor fit]
CC(C)CCNC(=O)CNC(=S)N(Cc1ccccc1)Cc1cccnc1 | -13.7% |  | 0.058 µM [rising, full curve, poor fit]
CCOC(=O)c1c(C)[nH]c(C(=O)OCC(=O)NC(C)(C)C)c1C |  |  | 0.103 µM [rising, single point]
COc1cc(C(=O)NCc2cccnc2)ccc1OCC(=O)Nc1cccc(C(F)(F)F)c1 | -0.757% |  | 29.1 µM [falling, single point]
Brc1cnc(N2CCCC2)nc1N1CCCCC1 | 54.5% | 13 µM [rising, partial curve, poor fit] | 
Cc1cc(C)cc(OC(C)C(=O)Nc2ccc(S(=O)(=O)Nc3cc(C)nc(C)n3)cc2)c1 (centres undefined) | 17.4% |  | 6.51 µM [rising, single point]
CN(CCOc1ccc(Cl)c(Cl)c1)Cc1ccccc1 | -27% |  | 

Structure (SMILES) | cell number change | AC50 [1] | AC50 [2]
CCOc1cc2[nH]c(=S)n(C(C)C)c(=O)c2cc1OCC | -35.9% | 13 µM [falling, single point] | 16.4 µM [falling, single point]
Cc1ccc(C)c(S(=O)(=O)N2CCN(C(=O)C3CCN(c4ncnc5sc(C)c(C)c45)CC3)CC2)c1 | 62% | 1.3 µM [rising, full curve] | 
CC1(C)CN(c2ccccc2)N(C(=O)c2ccc(C#N)cc2)C1=O |  |  | 29.1 µM [rising, single point]
O=C(Cc1ccccc1F)Nc1cc(S(=O)(=O)N2CCOCC2)ccc1N1CCOCC1 | 5.83% |  | 
CCc1cc(=O)oc2c3c(cc(OCC(=O)NCCN4CCOCC4)c12)OC(C)(C)CC3 | 11.5% |  | 29.1 µM [falling, single point]
CCOc1ccc(C2/C(=C(\O)c3ccc4c(c3)OCCO4)C(=O)C(=O)N2Cc2cccnc2)cc1OCC (centres undefined) | 26.3% | 0.00411 µM [rising, full curve, poor fit] | 29.1 µM [falling, single point]
COc1cc(-c2nc3oc4ccccc4c(=O)c3c(=O)n2Cc2ccco2)cc(OC)c1OC | -17.7% |  | 1.84 µM [rising, full curve]
O=C(NCCc1ccccn1)c1cncc(Br)c1 | 13.9% |  | 
CC(C)N1CC(C(=O)O)CC1=O (centres undefined) | -40.1% | 3.26 µM [falling, partial curve, poor fit] | 1.46 µM [falling, partial curve]
CCCCN(Cc1cc2cc(OC)ccc2[nH]c1=O)C(=O)c1ccco1 |  | 6.51 µM [rising, single point] | 2.91 µM [rising, partial curve]
CS(=O)(=O)c1ccccc1-c1nnc(NC(=O)Cc2ccccc2)o1 | -9.35% |  | 29.1 µM [rising, single point]
COc1ccc(-c2nc(N)n[nH]2)cc1OC | -14% | 0.116 µM [falling, full curve, poor fit] | 29.1 µM [falling, single point]
COc1ccccc1-c1cc(C(=O)Nc2sc3c(c2C#N)CCC(C)C3)c2ccccc2n1 (centres undefined) | 33.9% | 16.4 µM [rising, single point] | 
CC(NC(=O)c1ccccc1)c1ccc(F)cc1 (centres undefined) | -25.7% | 1.16 µM [falling, full curve, poor fit] | 0.461 µM [falling, full curve, poor fit]
Cc1ccc(C(=O)NNS(=O)(=O)c2ccc(F)cc2)cc1 | 1.62% |  | 
S=C(Nc1ccc(Oc2ccccc2)cc1)N1CCN(c2ccccn2)CC1 | -13.8% |  | 29.1 µM [falling, single point]
CC(C)N1CCN(Cc2ccsc2)CC1CCO (centres undefined) | -12.9% | 0.0461 µM [falling, full curve, poor fit] | 
CCC(Oc1ccc2c(c1)C(=O)CC(C)(C)O2)C(=O)NCCN1CCCCCC1 (centres undefined) | 28.5% | 1.46 µM [rising, full curve, poor fit] | 0.259 µM [rising, full curve]
